Consider 63 compounds from PubChem BioAssay AID2685 (National Center for Advancing Translational Sciences (NCATS), 2010).

This experiment can be described thus: qHTS Assay for Lipid Storage Modulators in Drosophila S3 Cells.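 As to cell number change: cells counted by Cell Tracker Red CMTPX staining in the red channel.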 The conditions noted are these: BODIPY lipid droplet fluorescence, 18-24 h; for cell number change: measured here: cell count max response, cells fed with added oleic acid. The essentials:
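Drosophila S3 cells loaded with oleic acid (400 uM, as added) and compounds at several concentrations; lipid droplets imaged by 488-nm laser-scanning cytometry, 500–530 nm intensity and object ratio to cell channel. Percent activity normalized to 20 uM Triacsin C.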

[1] abbreviates: measured here: lipid fluorescence (Fed channel) AC50, cells fed with added oleic acid.
[2] abbreviates: measured here: cell number channel AC50, cells fed with added oleic acid.

The structures appear in SMILES notation. Some of the results follow. These are further read-outs of the screen, such as a control signal, another cell line or another target. No call is given for them. Compounds called inactive in the main read-out are mostly missing here. Potencies come from curve fits of mixed quality, noted in brackets.

One may read the AC50 as the concentration at which the activity in the assay is half-maximal. Higher therefore signals weaker potency. With `COc1ccccc1CNC(=O)COc1cccc(-n2cnnn2)c1`, the cell number change was -20.2%. The concentration at half-maximal activity (AC50) under setting [1] is 0.461 µM [falling, full curve]. As for `COC(=O)CNc1nc(Cl)nc(N2CCC(C)CC2)n1`, the cell number change came out at 17.3%. Moreover, the concentration at half-maximal activity (AC50) under setting [2] was 0.164 µM [rising, full curve, poor fit]. In addition, the AC50 under setting [1] is 0.092 µM [rising, full curve, poor fit]. For the compound `COc1ccc(CCNC(=O)COC(=O)c2cc(OC)c(OC)cc2OC)cc1`, the cell number change was found to be 26.7%. In addition, the AC50 under setting [2] is 0.206 µM [rising, full curve, poor fit]. With `COc1cc(SC)ccc1C(=O)Nc1c(Cl)cncc1Cl`, the cell number change was 52.3%. The AC50 under setting [2] is 0.00461 µM [rising, full curve, poor fit]. Also, the AC50 under setting [1] is 25.9 µM [rising, partial curve]. Consider `O=C(CNC(=O)c1ccc(Cl)cc1Cl)OCc1nnc(-c2ccccc2)o1`, for which the AC50 under setting [1] was 11.6 µM [rising, partial curve]. Regarding `CC12CCC(=O)N1C(C(=O)Nc1cccc3ccccc13)CS2` (stereo not drawn), the cell number change is -11.1%. The AC50 under setting [1] was 6.51 µM [falling, single point]. For `Cc1ccc2cc3cc(C(=O)NCCCN4CCCC4)oc3nc2c1`, the cell number change came out at 1.19%. With `CSc1nc(-c2ccccc2)nc(C(C)C)n1`, the cell number change was -17.9%. For the same compound, the AC50 under setting [1] is 32.6 µM [rising, single point]. With `CN(CCN1CCOCC1)C(=O)c1cc(COc2ccc(F)c(F)c2)on1`, the cell number change is 7.51%.

`COCC(C)NC(=O)C1CCN(S(=O)(=O)c2ccc3ccccc3c2)CC1` (stereo not drawn): under setting [1], the AC50 was 29.1 µM [rising, single point]. Consider `COc1ccc(-c2[nH]ncc2N=Nc2cc(C)cc(C)c2)cc1`, for which the cell number change was -27.8%. For the same compound, the AC50 under setting [1] was 0.116 µM [falling, full curve].

On to `Cc1nc(-c2ccc(S(=O)(=O)N3CCCN(CCc4ccccc4)CC3)s2)cs1`, for which the cell number change turned out to be 12.6%. Moreover, under setting [1], the AC50 was 0.651 µM [rising, partial curve, poor fit]. Turning to `CN(Cc1c(O)ccc2c1oc(=O)c1ccccc12)C1CCCCC1`, the cell number change was -11.4%. For the same compound, under setting [1], the AC50 was 29.1 µM [rising, single point].

On to `CCC1CCCCN1C(=O)CSc1nnc(-c2ccc(OC)cc2)o1` (stereo not drawn), for which the cell number change was -40.8%. Besides, the AC50 under setting [2] is 13 µM [falling, partial curve, poor fit]. Also, under setting [1], the AC50 was 25.9 µM [falling, partial curve]. As for `COc1nnc(-c2ccc(C)c(S(=O)(=O)NC(C)(C)CO)c2)c2ccccc12`, the cell number change stood at 4.05%. The AC50 under setting [1] is 6.51 µM [falling, single point]. In the case of `CN(C)c1ccc(C(CC(=O)O)NC(=O)c2ccc(Cl)cc2)cc1` (stereo not drawn), the cell number change was -9.59%. Also, the AC50 under setting [2] was 6.51 µM [falling, single point]. In addition, under setting [1], the AC50 was 5.17 µM [falling, single point]. For `COc1ccc(Nc2nnc(-c3ccc(C(N)=O)cc3)c3ccccc23)cc1`, the cell number change is -31.7%. Besides, the AC50 under setting [2] is 0.58 µM [falling, partial curve, poor fit]. On to `Cc1cc(C)c2nc3c(c(C(=O)O)c2c1)CCC3`, for which the cell number change is -0.198%. For the same compound, the AC50 under setting [1] is 1.64 µM [falling, full curve]. As for `COc1cc(OC)cc(C(=O)NNC(=O)c2cc3ccccc3cc2O)c1`, the AC50 under setting [1] was 5.8 µM [rising, full curve]. As for `CCn1ccc(C(=O)Nc2ccccc2SC)n1`, the cell number change was determined as 12%. Further, the AC50 under setting [1] is 6.51 µM [rising, single point].

For `Cc1ccccc1C(OCCN(C)C)C1CCCCC1` (stereo not drawn), the cell number change was -6.25%. For the same compound, the AC50 under setting [1] is 0.206 µM [falling, full curve, poor fit].

`O=C(N/N=C/c1ccc(N2CCOCC2)s1)c1ccccc1Br`: the cell number change was -2.04%. Consider `Nc1nonc1N/N=C/c1c(O)ccc2ccccc12`, for which the cell number change was -18.1%. The AC50 under setting [1] is 0.116 µM [falling, full curve, poor fit].

For the compound `O=C1CN(Cc2nc3cc(Cl)ccc3c(=O)[nH]2)CCN1`, the cell number change turned out to be 8.24%. The same measure, in the same setting: next, `CC(C)Oc1ccc(S(=O)(=O)N2CCOCC2)cc1NC(=O)c1ccc(N2CCCC2=O)cc1`: 12%. Same read-out and setting: the result for `O=C(N/N=C/C=C\c1ccccc1)c1cnccn1` reads 39.9%.

For `COc1ccc2cc(C(=O)C3CCCN(C(=O)c4sc(C)nc4C)C3)ccc2c1` (stereo not drawn), the cell number change is -2.36%. In addition, the concentration at half-maximal activity (AC50) under setting [1] is 1.3 µM [rising, full curve]. On to `CCOc1ccc(NC(=O)c2cc(S(=O)(=O)N3CCCCC3)c[nH]2)cc1`, for which the cell number change came out at 7.49%.

As for `COc1ccc(NC(=O)CSc2ccc3nnc(-c4cccnc4)n3n2)cc1OC`, the cell number change was -3.47%. As to `NC(=O)C1CCN(C(c2ccccc2F)c2nnnn2Cc2ccco2)CC1` (stereo not drawn), the AC50 under setting [1] was 7.31 µM [falling, partial curve, poor fit]. On to `N/C(=N\OC(=O)COc1ccc2ccccc2c1Br)c1ccncc1`, for which the cell number change is 6.37%.

Regarding `CC1(C)C(=O)OC(c2cc(Br)ccc2O)C(C)(C)C1=O` (stereo not drawn), the cell number change was -27.8%. In addition, under setting [1], the AC50 is 18.4 µM [falling, single point]. `CC(C)CN1CN(S(=O)(=O)c2cccs2)c2nc3ccccc3nc21`: the cell number change was found to be 8.4%. Further, the AC50 under setting [1] was 0.461 µM [rising, partial curve]. Turning to `Cc1ccc(Nc2nc(-c3sc(C)nc3C)cs2)cc1`, the cell number change was -51.3%. Moreover, the AC50 under setting [2] was 16.4 µM [falling, single point]. Regarding `Nc1cc(=O)nc(SCC(=O)Nc2ccccc2)n1-c1ccccc1`, the cell number change is 28.5%. For the same compound, the AC50 under setting [1] is 14.6 µM [rising, partial curve, poor fit]. In the case of `CCOC(=O)c1cc(-c2ccccc2)sc1NC(=O)C(C)Sc1nnc(C)s1` (stereo not drawn), under setting [1], the AC50 was 23.1 µM [falling, single point]. As to `O=c1c2c(nc3nc(NCc4ccc(Cl)cc4)[nH]n13)CCC2`, the cell number change is -23.1%. With `Cc1cc(NC(=O)c2ccccc2)nc2c1c(=O)oc1ccccc12`, the cell number change was 16.7%. Under setting [1], the AC50 is 0.0731 µM [rising, full curve, poor fit]. For `COc1ccc(CS(=O)(=O)c2nc(C)cc(C)c2S(C)(=O)=O)cc1`, the cell number change came to 0.261%. Under setting [1], the AC50 is 1.3 µM [falling, partial curve, poor fit]. For `COc1ccc(NC(=S)NCc2cccn2C)cc1`, the cell number change was determined as 0.901%. With `CCCN1CCN(C(=O)c2ccccc2-c2nc3ccccc3s2)CC1`, the cell number change amounted to 8.74%. The half-maximal activity concentration (AC50) under setting [1] was 29.1 µM [rising, single point]. As for `COc1ccc(/C=C2/Sc3ccc(C(=O)NCCN4CCCCCC4)cc3NC2=O)cc1`, the cell number change was -16.3%. Besides, the AC50 under setting [1] is 6.51 µM [rising, single point]. For the compound `O=C(/C=C/c1ccccc1)NCCS(=O)(=O)N1CCN(c2ccccc2F)CC1`, the cell number change turned out to be 17.3%. As for `CCCc1nc2nc(C)c(NS(=O)(=O)c3ccc(C4CCCCC4)cc3)c(=O)n2[nH]1`, the cell number change was determined as 5.56%. Moreover, the half-maximal activity concentration (AC50) under setting [1] is 0.092 µM [rising, full curve, poor fit]. As for `CCn1c(SCC(=O)N2CCc3ccccc32)nnc1-c1ccncc1`, the cell number change is -17.8%. Also, the AC50 under setting [1] was 29.1 µM [falling, single point].

Turning to `Cn1nnnc1Sc1ncnc2scc(-c3ccccc3Cl)c12`, the cell number change was -55.1%. For the same compound, the half-maximal activity concentration (AC50) under setting [2] was 4.11 µM [falling, full curve]. Besides, the AC50 under setting [1] is 4.11 µM [falling, full curve].

Turning to `O=C(COc1ccc(Cl)cc1)Nc1cc2c3c(c1)CC(=O)N3CCC2`, the cell number change was 29.6%. Moreover, the AC50 under setting [1] is 0.13 µM [rising, full curve, poor fit]. For `Cc1cc(NCCN2CCCCC2)n2c(nc3ccccc32)c1C#N`, the cell number change was determined as 10.9%. The AC50 under setting [1] was 4.61 µM [falling, partial curve]. Take `CCn1c(=N)n(CC(O)c2cccs2)c2ccccc21` (stereo not drawn): the cell number change was -11.6%. Moreover, the AC50 under setting [1] was 0.13 µM [falling, full curve, poor fit]. On to `Cc1cc(C)n2nc(-c3ccc(F)cc3)nc2n1`, for which the cell number change was -12.6%. Moreover, the AC50 under setting [1] is 0.82 µM [falling, full curve, poor fit]. For `CNC(=S)/N=C(/Nc1ccccc1)c1ccccc1`, the cell number change is -12.2%. Under setting [1], the half-maximal activity concentration (AC50) is 0.82 µM [rising, partial curve, poor fit]. Regarding `O=C(CSCC(=O)N1CCCCC1)Nc1nc(-c2ccccc2)c(-c2ccccc2)s1`, the cell number change was -54.2%. Also, the AC50 under setting [2] was 13 µM [falling, partial curve]. Besides, the concentration at half-maximal activity (AC50) under setting [1] is 23.1 µM [falling, partial curve]. `COc1ccccc1NC(=O)CN1CCN(c2ccccc2)CC1`: the cell number change is 17.8%. Also, under setting [2], the AC50 was 0.00411 µM [falling, full curve, poor fit]. For the same compound, the AC50 under setting [1] was 1.64 µM [falling, partial curve]. Consider `CNC(=O)CSc1nnc(-c2cccs2)o1`, for which the cell number change amounted to 15.9%. In addition, under setting [1], the AC50 was 2.31 µM [rising, partial curve, poor fit].

For the compound `COCCCNc1nc2ccccc2nc1NS(=O)(=O)c1ccc(C)cc1C`, the cell number change worked out at 30.7%. The concentration at half-maximal activity (AC50) under setting [2] was 0.92 µM [rising, full curve, poor fit]. Under setting [1], the AC50 is 1.3 µM [rising, full curve]. For the compound `COc1ccc(OC)c(C(=O)c2ccc(C(=O)O)cc2)c1`, the cell number change came out at 81%. The AC50 under setting [2] is 13 µM [rising, partial curve, poor fit]. Moreover, the AC50 under setting [1] is 1.84 µM [rising, partial curve, poor fit]. Consider `CCOC(=O)c1ccc(N2C(=O)CC(Nc3ccc(O)cc3)C2=O)cc1` (stereo not drawn), for which the cell number change was -40.7%. Moreover, under setting [2], the AC50 is 8.2 µM [falling, partial curve]. Moreover, the AC50 under setting [1] is 14.6 µM [falling, partial curve, poor fit]. On to `Cc1ccc(/C=N/NC(=O)c2nnn(-c3nonc3N)c2CSc2ccccc2)o1`, for which the cell number change worked out at 14.9%. As for `C/C(=N\N(C)C)C1=C(O)c2ccccc2C1=O`, the cell number change was found to be 6.25%. Besides, the AC50 under setting [1] was 18.4 µM [rising, single point]. Turning to `ONC(=Nc1ccccc1)c1ccc(Cl)cc1`, the cell number change turned out to be 15.9%. Besides, under setting [1], the AC50 is 29.1 µM [rising, single point]. On to `CN(C)/C=C/C(=O)c1nn(-c2ccc(F)cc2)ccc1=O`, for which the cell number change is 32.5%. Besides, the AC50 under setting [2] is 29.1 µM [rising, single point]. For `Cc1ccc(C)c(-n2c(-c3csc(C)c3C)n[nH]c2=S)c1`, the cell number change came to 8.76%. Besides, under setting [1], the AC50 is 6.51 µM [rising, partial curve, poor fit]. Regarding `O=C(OCc1nc2ccccc2[n+]([O-])c1C(=O)c1ccccc1)c1ccco1`, the cell number change is 1.9%. Also, under setting [1], the AC50 is 4.11 µM [rising, single point].
